The values that follow come from PMC12507516.

Protein sequences, listed by entry. Tags and fused reporters are not part of them.
UniProt Q9JMB7: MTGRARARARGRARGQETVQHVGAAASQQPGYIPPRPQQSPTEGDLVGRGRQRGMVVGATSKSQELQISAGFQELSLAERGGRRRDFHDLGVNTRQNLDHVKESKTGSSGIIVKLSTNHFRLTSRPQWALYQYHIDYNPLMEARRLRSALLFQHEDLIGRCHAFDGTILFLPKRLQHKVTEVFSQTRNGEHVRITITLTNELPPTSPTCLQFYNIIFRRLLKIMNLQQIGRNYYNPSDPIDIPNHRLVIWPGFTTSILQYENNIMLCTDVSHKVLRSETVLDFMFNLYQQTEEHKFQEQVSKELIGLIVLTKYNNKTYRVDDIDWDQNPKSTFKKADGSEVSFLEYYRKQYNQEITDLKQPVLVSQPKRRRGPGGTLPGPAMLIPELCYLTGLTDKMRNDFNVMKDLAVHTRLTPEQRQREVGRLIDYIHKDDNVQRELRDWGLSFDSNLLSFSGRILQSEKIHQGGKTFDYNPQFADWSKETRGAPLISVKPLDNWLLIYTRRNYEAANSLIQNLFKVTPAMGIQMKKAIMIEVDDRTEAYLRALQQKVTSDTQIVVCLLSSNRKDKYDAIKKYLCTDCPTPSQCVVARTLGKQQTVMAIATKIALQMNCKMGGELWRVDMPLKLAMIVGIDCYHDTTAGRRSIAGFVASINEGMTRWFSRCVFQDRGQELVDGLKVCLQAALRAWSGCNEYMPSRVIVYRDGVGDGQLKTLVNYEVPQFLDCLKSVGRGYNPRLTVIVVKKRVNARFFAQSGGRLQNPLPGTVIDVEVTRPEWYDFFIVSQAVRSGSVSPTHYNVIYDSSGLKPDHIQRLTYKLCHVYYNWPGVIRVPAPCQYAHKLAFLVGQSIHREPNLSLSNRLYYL

The assay has as its target T1, GFP-tagged GASZ (mouse) (UniProt Q8VD46).
T1 sequence: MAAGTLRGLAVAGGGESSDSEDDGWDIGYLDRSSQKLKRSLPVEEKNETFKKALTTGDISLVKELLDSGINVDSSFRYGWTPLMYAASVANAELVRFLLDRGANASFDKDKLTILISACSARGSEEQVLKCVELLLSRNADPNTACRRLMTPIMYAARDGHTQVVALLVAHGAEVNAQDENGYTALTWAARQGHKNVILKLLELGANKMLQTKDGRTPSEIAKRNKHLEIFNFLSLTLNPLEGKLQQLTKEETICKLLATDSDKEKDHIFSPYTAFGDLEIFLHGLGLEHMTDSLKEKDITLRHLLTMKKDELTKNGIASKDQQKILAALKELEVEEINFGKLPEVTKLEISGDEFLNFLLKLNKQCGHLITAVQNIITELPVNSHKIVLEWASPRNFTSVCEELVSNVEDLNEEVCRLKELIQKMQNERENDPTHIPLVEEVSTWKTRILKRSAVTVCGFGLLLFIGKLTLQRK
As to the kind of experiment: co-IP; proteins co-expressed in 293T cells; lysis buffer 50 mM Tris pH7.6, 300 mM NaCl, 1% Triton X-100; IP with FLAG affinity beads, Western blot. For orientation: Immunoblotting shows a protein as a band on a membrane.

No constants are given. Whether binding was seen depends on the method and setting. In cells and extracts the contact can be indirect. Sequences can lack the tags named with a protein.

Consider “FLAG-tagged MIWI (from UniProt Q9JMB7 1-862)”, for which the binding result is “no binding”.
